Reference: patent US20240279334A1 (AMBERSTONE BIOSCIENCES, published 2024)
Results are given in words; binding and its absence hold for the method and conditions named. Some entries that bind do so weakly or less than the wild type.

The chains behind the UniProt entries cited, without tags or fusion partners. Residues count along the entry.
UniProt P07766, residues 23-207: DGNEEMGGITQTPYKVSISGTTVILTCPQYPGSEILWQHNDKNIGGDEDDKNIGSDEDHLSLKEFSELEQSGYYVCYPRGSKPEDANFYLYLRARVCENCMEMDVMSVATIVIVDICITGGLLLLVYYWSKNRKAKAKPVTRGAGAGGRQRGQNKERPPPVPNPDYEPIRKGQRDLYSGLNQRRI

Columns and labels:
[1] = target: human CD3 on T cells (Jurkat reporter cells, human primary T cells) (human) (UniProt P07766); assay: flow cytometry, human primary T cells; % Cell surface binding at pH 6.0, 6.6 and 7.4; Fab concentration not shown on the sheet
[2] = target: human CD3 on T cells (Jurkat reporter cells, human primary T cells) (human) (UniProt P07766); assay: flow cytometry, Fab on Jurkat reporter cells and human primary T cells
[3] = target: human CD3 on T cells (Jurkat reporter cells, human primary T cells) (human) (UniProt P07766); assay: flow cytometry, Jurkat cells; % Cell surface binding at pH 6.0, 6.6 and 7.4; Fab concentration not shown on the sheet
[4] = target: human CD3 on T cells (Jurkat reporter cells, human primary T cells) (human) (UniProt P07766); assay: flow cytometry, human primary T cells (per the legend); % Cell surface binding at pH 6.0, 6.6 and 7.4; Fab concentration not shown on the sheet
[5] = target: human CD3 on T cells (Jurkat reporter cells, human primary T cells) (human) (UniProt P07766); assay: flow cytometry, human primary T cells (per the legend); Mean Fluorescence Intensity at pH 6.0, 6.6 and 7.4; Fab concentration not shown on the sheet
[6] = target: human CD3 on T cells (Jurkat reporter cells, human primary T cells) (human) (UniProt P07766); assay: flow cytometry on Jurkat or human primary T cells (FIG. 7)
[7] = target: human CD3 on T cells (Jurkat reporter cells, human primary T cells) (human) (UniProt P07766); assay: flow cytometry, Fab on human primary T cells (% of cells and MFI)
[8] = target: human CD3 on T cells (Jurkat reporter cells, human primary T cells) (human) (UniProt P07766); assay: flow cytometry, Fab on human primary T cells (FIG. 48 B and C)
[9] = target: human CD3 on T cells (Jurkat reporter cells, human primary T cells) (human) (UniProt P07766); assay: flow cytometry, Fab on Jurkat or human primary T cells (FIG. 7)

Measured: binding

B1: h10.v1 (Fab) (Fab, V domains shown)
VH: EVQLVQSGAEVKKPGASVKVSCKASGYTFTSYYVHWVRQAPGQGLEWIGWIYPGDFNTKFNEKFKGRVTLTADTSASTAYMELSSLRSEDTAVYYCARDAYSYYYFDYWGQGTLVTVSS
VL: DIVMTQSPDSLAVSLGERATINCKSSQSLLNSRTRKNYLAWYQQKPGQPPKLLIYWATTRDSGVPDRFSGSGSGTDFTLTISSLQAEDVAVYYCIQSYTTRTFGGGTKVEIK
notes: Tested as a Fab; the Fab constant domains are not; also called non-pH-selective conventional control clone; conventional anti-CD3 control antibody
binds: [1] | [2] | [3] | [4] | [5] | [6]

B2: h10.v23 (Fab) (Fab, V domains shown)
VH: EVQLVQSGAEVKKPGASVKVSCKASGYTFTSYYVHWVRQAPGQGLEWIGWIYPGDFNTKFNEKFKGRVTLTADTSASTAYMELSSLRSEDTAVYYCARDHYGYYYFDYWGQGTLVTVSS
VL: DIVMTQSPDSLAVSLGERATINCKSSQSLLNSRTRHNYLAWYQQKPGQPPKLLIYWATTRASGVPDRFSGSGSGTDFTLTISSLQAEDVAVYYCIQSYTGRTFGGGTKVEIK
notes: Purified and used as a Fab; also called anti-CD3 clone h10.v23
binds: [7] | [8] | [4] | [5]

B3: h10.v27 (Fab) (Fab, V domains shown)
VH: EVQLVQSGAEVKKPGASVKVSCKASGYTFTSYYYHWVRQAPGQGLEWIGWIYPGDFNTKFNEKFKGRVTLTADTSASTAYMELSSLRSEDTAVYYCARDHYGYYYFDYWGQGTLVTVSS
VL: DIVMTQSPDSLAVSLGERATINCKSSQSLLNSRTRHNYLAWYQQKPGQPPKLLIYWATTRDSGVPDRFSGSGSGTDFTLTISSLQAEDVAVYYCIQSYTGRTFGGGTKVEIK
notes: Tested as a Fab
binds: [9] | [1] | [2] | [3]
